This assay can be described thus: qHTS Assay to Find Inhibitors of Chronic Active B-Cell Receptor Signaling. The note with it: ABC-DLBCL IkBa-CBG/CBR reporter, luminescence ratio (green luciferase fused to IkBa over red control in TMD8 lymphoma cells), 4 h. The essentials:
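Doxycycline induced both beetle luciferases in TMD8 lymphoma cells; IKK-driven degradation limits the IkappaBalpha-fused green signal, while red luminescence normalises for cell number and nonspecific effects. Compounds tested up to 46 uM, 4 hrs.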

[1] abbreviates: measured here: CBR red luminescence, cell number.

The list shows a part of the results. Shown are side measurements of this screen, not its main read-out; they come without a call. The list favours compounds with an active or inconclusive main result. Words in brackets tell the shape of the fitted curve; partial curves, single points and poor fits give uncertain potencies.

As a reminder, the AC50 is the midpoint of the concentration-response curve, whichever way the signal moves.

Take `COCCOC(=O)c1c(NC(=O)CNc2ccc(C)c(F)c2)sc(C(N)=O)c1C`: the AC50 under setting [1] was 3.16 µM [rising, partial curve, poor fit].
On the same count and under the same terms, the same measure for `O=C(COc1ccccc1)N/N=C/c1cc2c(cc1[N+](=O)[O-])OCO2`: 20.6 µM [rising, single point]; for `O=C(c1ccc(Cn2cc(Br)cn2)cc1)N1N=C(C(F)F)CC1(O)C(F)F` (stereo not given): 7.31 µM [falling, partial curve, poor fit].
Turning to `CCOc1nc(OCC)nc(N2CCC(C)CC2)n1`, the AC50 (measured here: IkBa-CBG green luminescence) is 23.1 µM [falling, partial curve, poor fit].
For `Cc1ccc(C(=O)Nc2cccc(C(=O)NC3CCCC3)c2)cc1`, under setting [1], the half-maximal activity concentration (AC50) is 10 µM [falling, partial curve].
Regarding `CCOC(=O)c1nc(N)c(=O)n(-c2ccccc2)n1`, under setting [1], the concentration at half-maximal activity (AC50) is 7.94 µM [falling, partial curve].
On the same count and under the same terms, under `C=CCN(C(=O)CSc1nnnn1C)c1nc(-c2ccccc2)cs1` stands 5.8 µM [rising, partial curve, poor fit]; under `CCC(=O)c1ccc(OCCN2CCOCC2)cc1`, 0.461 µM [falling, partial curve, poor fit].
As to `O=C(Nc1ccccc1C(=O)NC(Cc1ccccc1)C(=O)O)c1ccccc1` (stereo not given), the AC50 under setting [1] was 28.2 µM [falling, single point].
Same read-out and setting: under `Cc1ccc(C)c(NC(=O)c2cnn(-c3ccccc3)c2C)c1` stands 8.91 µM [falling, partial curve, poor fit]; under `Cc1cc(C)cc(N/C(N)=N/c2nc(C)cc(C)n2)c1`, 13 µM [falling, partial curve, poor fit]; under `C#CCOCCOCCOCCNc1nc(N2CCN(C(=O)[C@H](CCC(=O)O)n3cc([C@@H](N)[C@H](C)CC)nn3)CC2)nc(N2CCN(C(=O)[C@H](CCC(=O)O)n3cc([C@@H](N)CCSC)nn3)CC2)n1`, 6.51 µM [rising, single point].
Consider `N#CCCN1CCN(C(=S)c2ccc(-c3ccc(Cl)cc3)o2)CC1`, for which, under setting [1], the AC50 is 0.326 µM [rising, full curve, poor fit].
On the same count and under the same terms, under `O=C(OCCNc1ncc(C(F)(F)F)cc1Cl)c1ccc(S(=O)(=O)N2CCOCC2)cc1` stands 11.2 µM [rising, partial curve].
For the compound `Cc1ccc(-c2ccccc2NC(=O)CCl)o1`, the AC50 under setting [1] is 8.91 µM [falling, partial curve].
Still for that read-out and setting: under `CS/C(N)=N/N=C/c1ccc([N+](=O)[O-])cc1` stands 35.5 µM [falling, single point]; under `Cc1ccc(-c2n[nH]c(=S)n2/N=C/c2cccs2)cc1`, 0.651 µM [falling, partial curve, poor fit]; under `CCOC(=O)N1CCN(C(=O)c2cc3c(s2)-c2ccc(Cl)cc2S(=O)(=O)C3)CC1`, 35.5 µM [falling, single point].
For `CCn1c2ccccc2c2cc(NC(=O)C/C(C)=N/NC(=O)c3ccccc3N)ccc21`, under setting [1], the AC50 is 12.6 µM [falling, partial curve, poor fit].
In the case of `O=C(Cc1c(F)cccc1Cl)N1CCOCC1`, the AC50 under setting [1] is 6.31 µM [rising, partial curve, poor fit].
On the same count and under the same terms, under `COc1cccc(CN2CCN(Cc3[nH]c4ccccc4c3C)CC2CCO)c1` (stereo not given) stands 7.94 µM [falling, partial curve].
With `O=C(COC(=O)Cc1ccsc1)Nc1ccc(Br)cc1F`, under setting [1], the AC50 is 0.0058 µM [rising, full curve, poor fit].
With `COc1ccc(C(=O)OCCc2cc3ccccc3c(=O)o2)cc1`, under setting [1], the AC50 was 25.9 µM [falling, single point].
The same measure, in the same setting: under `Cc1ccc(S(=O)(=O)C(CNC(=O)C(=O)NCCc2ccc(Cl)cc2)c2cccs2)cc1` (stereo not given) stands 0.1 µM [rising, full curve, poor fit]; under `CCOC(=O)Cn1c(=O)oc2cc(S(=O)(=O)N3CCN(C(=O)c4ccco4)CC3)ccc21`, 29.1 µM [rising, single point]; under `CCCCNC(=O)C1CCCN1C(=O)Nc1cccc(OC)c1` (stereo not given), 2.82 µM [rising, single point].
For the compound `O=C(Nc1nc2ccccc2s1)C1CC(=O)N(c2ccc(Cl)cc2)C1` (stereo not given), the AC50 under setting [1] is 13 µM [falling, single point].
As to `COc1ccc(CCNC(=O)C2CCN(S(=O)(=O)N3CC(C)CC(C)C3)CC2)cc1OC` (stereo not given), under setting [1], the AC50 was 2 µM [rising, full curve, poor fit].
For the compound `CCCS(=O)(=O)c1nnnn1-c1cccc(OC)c1`, the concentration at half-maximal activity (AC50) under setting [1] was 3.66 µM [falling, full curve].
Still for that read-out and setting: under `Cc1ccc(Cl)c(OCC(=O)NN2CCN(C)CC2)c1` stands 7.94 µM [rising, partial curve, poor fit].
Same read-out and setting: under `Cc1ccc(CNC(=O)CN2CCN(Cc3ccc(C)cc3)C2=O)cc1` stands 0.651 µM [falling, full curve, poor fit].
Same read-out and setting: under `O=C(CC1N=C2c3ccccc3N=C(SCc3cccc(Cl)c3)N2C1=O)NCCc1ccccc1` (stereo not given) stands 15.8 µM [falling, single point].
As for `Cc1ccc(C)c(OCCn2cc(/C=C(\C#N)C(=O)NCC3CCCO3)c3ccccc32)c1` (stereo not given), the AC50 under setting [1] was 0.58 µM [rising, full curve, poor fit].
The same measure, in the same setting: the same measure for `COc1cc(/C=C2\SC(N3CCc4ccccc4C3)=NC2=O)cc(OC)c1OC`: 0.651 µM [rising, full curve, poor fit]; for `CCOc1ccc(/C=N/NC(=S)NC2CC3CC2C2C=CCC32)cc1` (stereo not given): 35.5 µM [rising, single point]; for `Cc1ncc(CO)c(/C=N/NC(=O)c2cc(O)c(O)c(O)c2)c1O`: 11.2 µM [falling, partial curve, poor fit].
Consider `Cc1c(NC(=O)CSCc2c(F)cccc2Cl)c(=O)n(-c2ccccc2)n1C`, for which the AC50 under setting [1] was 22.4 µM [rising, single point].
On the same count and under the same terms, the same measure for `COc1cc(OC)cc(C(=O)NC(C(=O)NCCc2ccccn2)C(C)C)c1` (stereo not given): 29.1 µM [rising, partial curve, poor fit].
Same read-out and setting: the same measure for `O=C(OCC(=O)N1CCOCC1)c1c(Cl)ccc(Cl)c1Cl`: 20 µM [rising, partial curve, poor fit]; for `CCCCN(C)CCNC(=O)CN1C(=O)CSc2ccc(S(=O)(=O)N3CCCCC3)cc21`: 12.6 µM [falling, single point].

Values taken from PubChem BioAssay AID493014 (National Center for Advancing Translational Sciences (NCATS), 2011).
